# PMC11406491, “A Plasmonic Nanoledge Array Sensor for Selective Detection of Cardiovascular Disease Biomarkers in Human Whole Blood”
# For at least one entry, the source does not settle the construct or the ends of the probe. A negative result means that nothing was seen under these conditions.
# Tested on: creatine kinase (CK)
# Test: SPR (transmitted, EOT peak shift)
# Conditions: up to 125 ng/mL, minimal shift, described as poor binding, human serum (Methods) or PBS (Fig S8), 5' amino modifier C6 (5AmMC6), Aptamer immobilized on gold nanoledge chip (cystamine/glutaraldehyde, PEG and glycine blocked), human serum or whole blood, 20 min incubation, commercial protein, single-stranded DNA
sequence,measurement,value
CGTGCAGTACGCCAACCTTTCTCATGCGCTGCCCCTCTTA [cTnI-specific aptamer],binding result,no binding
